Results are given in words; binding and its absence hold for the method and conditions named. In cells and extracts the contact can be indirect. Some results given as binding are weak or reduced against the parent protein; the word gives no strength.
Key:
[1] = target: Aryl hydrocarbon receptor (human (endogenous in LS180)) (UniProt P35869); test: condition: only cells treated with butyrate (10 mM) alone, without an AhR agonist; co-IP; LS180 cells treated for 90 min with butyrate (10 mM) alone; lysate; Pierce Co-Immunoprecipitation Kit with covalently bound AhR antibody; eluate blotted with ARNT 1 antibody
[2] = target: Aryl hydrocarbon receptor (human (endogenous in LS180)) (UniProt P35869); test: co-IP; LS180 cells treated for 90 min with TCDD (10 nM), FICZ (10 nM) or butyrate (10 mM) with FICZ (10 nM); lysate; Pierce Co-Immunoprecipitation Kit with covalently bound AhR antibody; eluate blotted with ARNT 1 antibody

Amino acid sequences for entries named in this document (tags omitted). Residues count along the entry.
UniProt P35869, residues 11-848: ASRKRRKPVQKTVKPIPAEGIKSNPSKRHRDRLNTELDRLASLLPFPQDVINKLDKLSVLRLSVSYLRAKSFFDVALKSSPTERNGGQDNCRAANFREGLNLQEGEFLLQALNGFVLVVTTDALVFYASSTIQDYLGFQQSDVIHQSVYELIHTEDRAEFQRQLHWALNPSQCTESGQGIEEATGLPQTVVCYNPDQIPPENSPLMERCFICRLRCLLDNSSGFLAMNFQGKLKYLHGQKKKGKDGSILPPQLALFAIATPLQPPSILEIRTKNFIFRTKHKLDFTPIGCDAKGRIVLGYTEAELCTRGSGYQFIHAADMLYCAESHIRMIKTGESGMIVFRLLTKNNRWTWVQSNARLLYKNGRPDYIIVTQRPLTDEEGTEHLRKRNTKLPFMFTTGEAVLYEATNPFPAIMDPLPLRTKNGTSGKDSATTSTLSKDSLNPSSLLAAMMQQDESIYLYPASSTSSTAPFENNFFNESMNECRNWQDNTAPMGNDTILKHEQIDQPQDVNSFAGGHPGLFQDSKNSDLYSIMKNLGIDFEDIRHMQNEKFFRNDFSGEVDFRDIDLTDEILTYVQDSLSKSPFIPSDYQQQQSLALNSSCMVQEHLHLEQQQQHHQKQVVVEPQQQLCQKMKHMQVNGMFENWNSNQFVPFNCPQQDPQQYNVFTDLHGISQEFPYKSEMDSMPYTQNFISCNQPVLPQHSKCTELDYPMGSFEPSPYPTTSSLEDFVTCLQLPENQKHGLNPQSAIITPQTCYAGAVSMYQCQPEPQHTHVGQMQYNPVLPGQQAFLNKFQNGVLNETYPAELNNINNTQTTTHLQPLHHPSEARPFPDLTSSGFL
UniProt P27540: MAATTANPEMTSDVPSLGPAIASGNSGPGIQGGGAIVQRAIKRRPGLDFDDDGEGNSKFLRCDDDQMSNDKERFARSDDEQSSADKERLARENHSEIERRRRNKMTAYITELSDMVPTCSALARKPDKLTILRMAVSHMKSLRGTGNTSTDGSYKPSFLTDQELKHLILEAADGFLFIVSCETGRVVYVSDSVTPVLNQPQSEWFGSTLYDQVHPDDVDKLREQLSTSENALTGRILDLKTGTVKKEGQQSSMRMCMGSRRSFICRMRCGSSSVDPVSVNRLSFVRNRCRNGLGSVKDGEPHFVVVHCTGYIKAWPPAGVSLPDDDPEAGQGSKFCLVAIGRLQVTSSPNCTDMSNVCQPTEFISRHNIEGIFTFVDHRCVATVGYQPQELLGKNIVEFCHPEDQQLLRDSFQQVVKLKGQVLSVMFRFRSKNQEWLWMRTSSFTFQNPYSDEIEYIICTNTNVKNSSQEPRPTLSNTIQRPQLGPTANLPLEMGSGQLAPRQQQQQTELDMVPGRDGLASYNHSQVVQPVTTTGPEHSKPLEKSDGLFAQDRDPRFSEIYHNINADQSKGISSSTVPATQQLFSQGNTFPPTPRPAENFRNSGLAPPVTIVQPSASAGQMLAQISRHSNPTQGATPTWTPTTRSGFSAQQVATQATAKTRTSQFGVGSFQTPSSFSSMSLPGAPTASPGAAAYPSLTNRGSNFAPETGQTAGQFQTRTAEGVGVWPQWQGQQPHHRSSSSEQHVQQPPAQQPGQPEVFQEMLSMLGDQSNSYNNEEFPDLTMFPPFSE

Substance: AhR nuclear translocator (from UniProt P27540 1-789)
- binding [1]: no binding
- binding [2]: binds

— paper PMC9336500
